# Data as given in PMC5996148.
# Some of the results follow.
# Columns and labels:
# Assay in all cases: protein microarray (ProtoArray v5.0), streptavidin-Alexa Fluor 647
# Settings in all cases: 3'-biotin; 20 mM Tris (pH 7.5), 5 mM MgCl2, 100 mM KCl, 0.1% Tween-20, A/T-rich and random oligonucleotide blockers; temperature not stated; high values mean tight binding
# [1] = test system: Trafficking protein particle complex subunit 6A (human)
# Transaldolase (human) = test system: Transaldolase (human)
# [2] = test system: Transcription initiation factor TFIID subunit 8 (human)
# [3] = test system: Transducin-like enhancer protein 4 (human)
# [4] = test system: Transmembrane 4 L6 family member 1 (human)
# [5] = test system: Transmembrane 4 L6 family member 18 (human)
# [6] = test system: Transmembrane protein 107 (human)
# [7] = test system: Transmembrane protein 120A (human)
# [8] = test system: Transmembrane protein 156 (human)
# [9] = test system: Transmembrane protein 188 (human)
sequence,measurement,setting,value
GGGAGGCTGAGGCAGG [G4-1 biotinylated (PQS2)],binding signal,[1],-0.328 z-score
same,binding signal,Transaldolase (human),-0.355 z-score
same,binding signal,[2],-0.356 z-score
same,binding signal,[3],-0.327 z-score
same,binding signal,[4],-0.335 z-score
same,binding signal,[5],-0.304 z-score
same,binding signal,[6],-0.298 z-score
same,binding signal,[7],-0.298 z-score
same,binding signal,[8],-0.356 z-score
same,binding signal,[9],-0.307 z-score
